The values that follow come from the supplement of paper PMC8728848.

Holding throughout (assay): glycan array binding signal (z-score within array); higher = stronger binding
Common to all, as to details: glycan notation: IUPAC condensed, linker removed

Experiment [1] deals with GlcNAc(b1-2)[GlcNAc(b1-4)]Man(a1-3)[GlcNAc(b1-4)][GlcNAc(b1-2)[GlcNAc(b1-6)]Man(a1-6)]Man(b1-4)GlcNAc(b1-4)GlcNAc. An outline of the steps: (§1)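 Columns mapping to the same glycan were averaged after glycan names were converted to IUPAC-condensed notation. The data come from 3228 arrays in the Consortium for Functional Glycomics database, limited to those with an available protein sequence. Binding is reported as a within-array Z-score averaged across arrays of one protein sequence and across linkers.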

In experiment [2] the target is GlcNAc(b1-2)[GlcNAc(b1-4)]Man(a1-3)[GlcNAc(b1-4)][GlcNAc(b1-2)[GlcNAc(b1-6)]Man(a1-6)]Man(b1-4)GlcNAc(b1-4)[Fuc(a1-6)]GlcNAc. An outline of the steps:
as §1

Experiment [3] has as its target GlcNAc(b1-2)[GlcNAc(b1-6)]Man(a1-6)[GlcNAc(b1-2)Man(a1-3)]Man(b1-4)GlcNAc(b1-4)GlcNAc. An outline of the steps: as §1
Experiment [4] addresses GlcNAc(b1-2)[GlcNAc(b1-6)]Man(a1-6)[GlcNAc(b1-2)Man(a1-3)]Man(b1-4)GlcNAc(b1-4)[Fuc(a1-6)]GlcNAc. An outline of the steps:
as §1

Experiment [5] addresses GlcNAc(b1-2)[GlcNAc(b1-6)]Man(a1-6)[GlcNAc(b1-4)][GlcNAc(b1-2)Man(a1-3)]Man(b1-4)GlcNAc(b1-4)GlcNAc. An outline of the steps:
as §1

The target of the next experiment is GlcNAc(b1-3)Fuc. An outline of the steps: as §1
The next experiment concerns the target GlcNAc(b1-3)Gal. Put shortly:
as §1

Experiment [6] has as its target GlcNAc(b1-3)Gal(b1-3)GalNAc. An outline of the steps: as §1
The next experiment concerns the target GlcNAc(b1-3)Gal(b1-4)Glc. Put shortly: as §1
Experiment [7] concerns the target GlcNAc(b1-3)Gal(b1-4)GlcNAc. Put shortly: as §1
Experiment [8] deals with GlcNAc(b1-3)Gal(b1-4)GlcNAc(b1-2)Man(a1-3)[GlcNAc(b1-3)Gal(b1-4)GlcNAc(b1-2)Man(a1-6)]Man(b1-4)GlcNAc(b1-4)GlcNAc. An outline of the steps: as §1
For experiment [9], the target named is GlcNAc(b1-3)Gal(b1-4)GlcNAc(b1-2)Man(a1-3)[GlcNAc(b1-3)Gal(b1-4)GlcNAc(b1-2)Man(a1-6)]Man(b1-4)GlcNAc(b1-4)[Fuc(a1-6)]GlcNAc. Put shortly: as §1
Experiment [10] deals with GlcNAc(b1-3)Gal(b1-4)GlcNAc(b1-2)[GlcNAc(b1-3)Gal(b1-4)GlcNAc(b1-6)]Man(a1-6)[GlcNAc(b1-3)Gal(b1-4)GlcNAc(b1-2)Man(a1-3)]Man(b1-4)GlcNAc(b1-4)GlcNAc. An outline of the steps:
as §1

Experiment [11] addresses GlcNAc(b1-3)Gal(b1-4)GlcNAc(b1-3)Gal(b1-4)GlcNAc. Put shortly: as §1
The target in experiment [12] is GlcNAc(b1-3)Gal(b1-4)GlcNAc(b1-3)Gal(b1-4)GlcNAc(b1-2)Man(a1-3)[GlcNAc(b1-3)Gal(b1-4)GlcNAc(b1-3)Gal(b1-4)GlcNAc(b1-2)Man(a1-6)]Man(b1-4)GlcNAc(b1-4)GlcNAc. Put shortly: as §1
Experiment [13] has as its target GlcNAc(b1-3)Gal(b1-4)GlcNAc(b1-3)Gal(b1-4)GlcNAc(b1-2)Man(a1-3)[GlcNAc(b1-3)Gal(b1-4)GlcNAc(b1-3)Gal(b1-4)GlcNAc(b1-2)Man(a1-6)]Man(b1-4)GlcNAc(b1-4)[Fuc(a1-6)]GlcNAc. Put shortly:
as §1

Experiment [14] concerns the target GlcNAc(b1-3)Gal(b1-4)GlcNAc(b1-3)Gal(b1-4)GlcNAc(b1-2)[GlcNAc(b1-3)Gal(b1-4)GlcNAc(b1-3)Gal(b1-4)GlcNAc(b1-6)]Man(a1-6)[GlcNAc(b1-3)Gal(b1-4)GlcNAc(b1-3)Gal(b1-4)GlcNAc(b1-2)Man(a1-3)]Man(b1-4)GlcNAc(b1-4)[Fuc(a1-6)]GlcNAc. Put shortly: as §1
The target of experiment [15] is GlcNAc(b1-3)Gal(b1-4)GlcNAc(b1-3)Gal(b1-4)GlcNAc(b1-3)Gal(b1-4)GlcNAc(b1-2)Man(a1-3)[GlcNAc(b1-3)Gal(b1-4)GlcNAc(b1-3)Gal(b1-4)GlcNAc(b1-3)Gal(b1-4)GlcNAc(b1-2)Man(a1-6)]Man(b1-4)GlcNAc(b1-4)GlcNAc. An outline of the steps:
as §1

In experiment [16] the target is GlcNAc(b1-3)Gal(b1-4)GlcNAc(b1-3)Gal(b1-4)GlcNAc(b1-3)Gal(b1-4)GlcNAc(b1-2)Man(a1-3)[GlcNAc(b1-3)Gal(b1-4)GlcNAc(b1-3)Gal(b1-4)GlcNAc(b1-3)Gal(b1-4)GlcNAc(b1-2)Man(a1-6)]Man(b1-4)GlcNAc(b1-4)[Fuc(a1-6)]GlcNAc. An outline of the steps: as §1

The list shows a part of the results.

B1: Aap lectin (Staphylococcus epidermidis) (protein)
chain: VNLNYSSPFMSLLSMPADSSSNNTKNTIDIPPTTVKGRDNYDFYGRVDIESNPTDLNATNLTRYNYGQPPGTTTAGAVQFKNQVSFDKDFDFNIRVANNRQSNTTGADGWGFMFSKKDGDDFLKNGGILREKGTPSAAGFRIDTGYYNNDPLDKIQKQAGQGYRGYGTFVKNDSQGNTSKVGSGTPSTDFLNYADNTTNDLDGKFHGQKLNNVNLKYNASNQTFTATYAGKTWTATLSELGLSPTDSYNFLVTSS
Consider B1, for which the “glycan array binding signal (z-score)” value in experiment [1] is -0.694; in experiment [2], -0.887; in [3], -0.879; in experiment [4], 0.281; in [5], -0.861; with GlcNAc(b1-3)Fuc, -0.498. The “glycan array binding signal (z-score)” value in the experiment with GlcNAc(b1-3)Gal was 1.92; in [6] it was -0.342; in the experiment with GlcNAc(b1-3)Gal(b1-4)Glc it was 0.941; in experiment [7], -0.278; in experiment [8], 0.543; in [9], -0.827. Also, the “glycan array binding signal (z-score)” value in experiment [10] was -0.884; in experiment [11] it was -0.777; in [12] it was 3.83; in [13], -0.748; in [14], 1.52; in experiment [15], -0.015. For the same molecule, in [16], the “glycan array binding signal (z-score)” value worked out at 2.52.
